Measured values as given in patent publication US20020028487A1.
No constants are given. Whether binding was seen depends on the method and setting. For some of these results: In cells and extracts the contact can be indirect. Some binding calls cover weakened binding; strength is not graded here. One block for each substance: values may come before it.

By UniProt entry, the sequences of proteins in these tests, tags left out. Where a name states a change or a piece, a line headed by the entry shows the natural chain unless it says otherwise.
UniProt P04386: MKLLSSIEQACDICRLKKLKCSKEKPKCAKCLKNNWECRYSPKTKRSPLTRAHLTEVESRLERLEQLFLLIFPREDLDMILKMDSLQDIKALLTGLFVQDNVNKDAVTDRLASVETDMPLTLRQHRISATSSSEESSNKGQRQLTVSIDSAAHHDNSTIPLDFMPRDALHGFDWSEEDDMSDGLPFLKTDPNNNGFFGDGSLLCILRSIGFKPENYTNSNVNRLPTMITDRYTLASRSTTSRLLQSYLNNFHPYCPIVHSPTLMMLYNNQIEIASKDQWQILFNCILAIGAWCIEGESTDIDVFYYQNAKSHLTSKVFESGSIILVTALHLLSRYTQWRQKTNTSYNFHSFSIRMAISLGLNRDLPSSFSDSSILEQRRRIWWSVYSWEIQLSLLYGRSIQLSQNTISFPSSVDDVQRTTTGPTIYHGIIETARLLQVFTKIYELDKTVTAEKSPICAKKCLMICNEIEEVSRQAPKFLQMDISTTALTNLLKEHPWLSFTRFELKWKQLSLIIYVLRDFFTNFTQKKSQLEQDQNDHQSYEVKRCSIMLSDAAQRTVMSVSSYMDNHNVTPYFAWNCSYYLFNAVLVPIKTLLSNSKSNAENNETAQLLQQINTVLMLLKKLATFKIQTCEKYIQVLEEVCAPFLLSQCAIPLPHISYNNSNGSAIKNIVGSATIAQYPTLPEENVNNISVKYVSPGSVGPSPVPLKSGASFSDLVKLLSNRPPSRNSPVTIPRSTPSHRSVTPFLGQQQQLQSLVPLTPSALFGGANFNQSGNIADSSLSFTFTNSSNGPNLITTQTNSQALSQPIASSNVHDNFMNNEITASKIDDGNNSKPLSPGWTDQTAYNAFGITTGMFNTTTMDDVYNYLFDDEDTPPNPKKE
UniProt P0A7C2: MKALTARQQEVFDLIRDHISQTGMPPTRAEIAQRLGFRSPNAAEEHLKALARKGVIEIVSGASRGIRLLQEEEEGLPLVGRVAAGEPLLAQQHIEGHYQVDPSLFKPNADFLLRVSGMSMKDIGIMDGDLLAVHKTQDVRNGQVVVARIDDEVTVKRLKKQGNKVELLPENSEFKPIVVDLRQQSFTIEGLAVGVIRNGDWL
UniProt P20226: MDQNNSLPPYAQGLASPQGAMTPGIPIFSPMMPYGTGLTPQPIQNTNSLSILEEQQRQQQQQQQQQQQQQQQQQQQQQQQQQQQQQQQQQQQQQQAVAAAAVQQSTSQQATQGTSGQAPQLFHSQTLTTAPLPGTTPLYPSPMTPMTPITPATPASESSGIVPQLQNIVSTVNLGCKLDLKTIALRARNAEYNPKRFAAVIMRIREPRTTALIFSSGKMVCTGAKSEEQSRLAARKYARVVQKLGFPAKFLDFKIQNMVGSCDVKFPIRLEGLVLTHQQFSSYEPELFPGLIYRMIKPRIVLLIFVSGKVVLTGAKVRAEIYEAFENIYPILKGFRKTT

Tests used:
VP16-JMY^469-558 (mouse) [1] = target: T1, VP16-JMY^469-558 (mouse) (UniProt Q9QXM1); assay: mammalian two-hybrid assay in U2OS cells
T1 sequence: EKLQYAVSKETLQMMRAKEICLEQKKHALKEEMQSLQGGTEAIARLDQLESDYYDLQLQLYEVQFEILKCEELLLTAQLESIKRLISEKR

VP16-JMY^469-558 (mouse) [2] = target: T1, VP16-JMY^469-558 (mouse); assay: yeast two-hybrid, β-galactosidase induction; prey VP16-JMY^469-558
GST-JMY 1-117 (mouse) = GST-JMY 1-117 (mouse) (UniProt Q9QXM1); assay: GST pull-down of in vitro translated, labelled protein with 2 µg GST-JMY portion
GST-JMY 1-504 (mouse) = GST-JMY 1-504 (mouse) (UniProt Q9QXM1); assay: as above

Substance: G4-p300^611-2283 (from UniProt P04386 1-147; Q09472 611-2283)
binding (VP16-JMY^469-558 (mouse) [1]): binds

Substance: LexA-p300^611-2283 (from UniProt P0A7C2 1-202; Q09472 611-2283)
binding (VP16-JMY^469-558 (mouse) [2]): binds

binding (GST-JMY 1-117 (mouse)): binds | binding (GST-JMY 1-504 (mouse)): binds
Substance: TATA-box-binding protein TBP (from UniProt P20226 1-339)
